For data set [1], the system named is GST-OsMYB5P (Oryza sativa L. 'Dongjin'). Put plainly: EMSA. As to conditions: poly(dI-dC), 5 mM MgCl2, 5 mM MgCl2, 2.5% glycerol, 0.05% NP-40, 50 ng/uL poly(dI-dC), recombinant protein, protein details: GST (pGEX-2T), label: 3' biotin. For orientation: A gel shift assay detects complexes by their altered migration in electrophoresis.
Data set [2] has the same test system. Put plainly: competition with a labelled probe. The following applies: cold probe decreases the labeled MBS1 complex; 5 mM MgCl2, 2.5% glycerol, 0.05% NP-40, 50 ng/uL poly(dI-dC); recombinant protein; protein details: GST (pGEX-2T).

Here are results for three sequences from PMC5864048.

Construct, isoform or probe ends are uncertain for at least one entry. For part of these data: A weaker result is weaker than the reference pair of the same experiment. For part of these data: At least one verdict was read from the data and is not stated in words by the source.

In the case of “GGACAGGAACATTCCAGTTGATGGTTTCCTTCAATTAGG (double strand) [OsPT5-MBS2]”, the binding result in data set [1] is “binds more weakly”.

For “TATAATATAATGAACTTACAGTTGAGACATACATATGAA (double strand) [OsPT5-MBS1 cold competitor]”, the binding result in data set [2] is “binds”.

Take “TATAATATAATGAACTTACAGTTGAGACATACATATGAA (double strand) [OsPT5-MBS1]”: the binding result in data set [1] (band increases with protein amount) is “binds”.
